In article doi:10.1101/2025.05.29.656919 (bioRxiv, 2025):
Results are given in words; binding and its absence hold for the method and conditions named.

Chains of the proteins cited; added tags and fusions are not shown. Lines headed by an entry give the natural chain unless they say otherwise; changes in a name come on top.
UniProt Q9SRH5: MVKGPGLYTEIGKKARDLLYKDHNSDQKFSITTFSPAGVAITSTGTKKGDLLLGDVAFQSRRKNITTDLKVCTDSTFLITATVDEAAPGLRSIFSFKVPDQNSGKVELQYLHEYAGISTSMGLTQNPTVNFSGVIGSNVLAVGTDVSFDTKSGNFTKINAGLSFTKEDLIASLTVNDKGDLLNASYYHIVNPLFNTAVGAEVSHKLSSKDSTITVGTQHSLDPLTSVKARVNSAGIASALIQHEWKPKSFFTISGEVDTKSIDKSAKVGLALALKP
UniProt Q9FJX3: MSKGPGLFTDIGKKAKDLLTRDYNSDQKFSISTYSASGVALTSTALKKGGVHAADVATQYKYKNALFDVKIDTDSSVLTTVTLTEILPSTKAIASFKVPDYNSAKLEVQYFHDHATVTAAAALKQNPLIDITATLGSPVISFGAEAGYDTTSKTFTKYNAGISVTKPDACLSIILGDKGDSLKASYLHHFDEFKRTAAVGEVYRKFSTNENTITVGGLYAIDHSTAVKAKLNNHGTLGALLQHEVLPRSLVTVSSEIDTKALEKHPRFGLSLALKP
UniProt Q9SMX3: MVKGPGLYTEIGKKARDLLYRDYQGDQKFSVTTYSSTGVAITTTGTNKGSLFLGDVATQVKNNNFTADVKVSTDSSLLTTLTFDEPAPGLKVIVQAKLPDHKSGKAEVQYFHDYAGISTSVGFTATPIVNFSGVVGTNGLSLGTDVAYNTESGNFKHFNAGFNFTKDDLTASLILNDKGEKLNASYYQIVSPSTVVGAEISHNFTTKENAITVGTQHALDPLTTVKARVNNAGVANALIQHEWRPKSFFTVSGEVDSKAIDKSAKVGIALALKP

Assays:
Experiment in all cases: pull-down
[1] = molecular target: GST-fused VDAC1 N-terminal overhang with mutated AIM (Arabidopsis) (UniProt Q9SRH5)
[2] = molecular target: GST-fused VDAC2 N-terminal overhang with mutated AIM (Arabidopsis) (UniProt Q9FJX3)
[3] = molecular target: GST-fused VDAC3 N-terminal overhang with mutated AIM (Arabidopsis) (UniProt Q9SMX3)

Measured: binding

B1: 6×His-tagged ATG8e (natural protein, Arabidopsis, UniProt Q8S926 1-118, looked up)
chain: MNKGSIFKMDNDFEKRKAEAGRIREKYPDRIPVIVEKAEKSEVPNIDKKKYLVPSDLTVGQFVYVIRKRIKLSAEKAIFIFVDNVLPPTGELMSSVYEDKKDEDGFLYITYSGENTFG
no binding: all assays above
